Experimental findings from paper PMC4351203 are described below.

Protein sequences, listed by entry. Tags and fused reporters are not part of them.
UniProt Q8VI36: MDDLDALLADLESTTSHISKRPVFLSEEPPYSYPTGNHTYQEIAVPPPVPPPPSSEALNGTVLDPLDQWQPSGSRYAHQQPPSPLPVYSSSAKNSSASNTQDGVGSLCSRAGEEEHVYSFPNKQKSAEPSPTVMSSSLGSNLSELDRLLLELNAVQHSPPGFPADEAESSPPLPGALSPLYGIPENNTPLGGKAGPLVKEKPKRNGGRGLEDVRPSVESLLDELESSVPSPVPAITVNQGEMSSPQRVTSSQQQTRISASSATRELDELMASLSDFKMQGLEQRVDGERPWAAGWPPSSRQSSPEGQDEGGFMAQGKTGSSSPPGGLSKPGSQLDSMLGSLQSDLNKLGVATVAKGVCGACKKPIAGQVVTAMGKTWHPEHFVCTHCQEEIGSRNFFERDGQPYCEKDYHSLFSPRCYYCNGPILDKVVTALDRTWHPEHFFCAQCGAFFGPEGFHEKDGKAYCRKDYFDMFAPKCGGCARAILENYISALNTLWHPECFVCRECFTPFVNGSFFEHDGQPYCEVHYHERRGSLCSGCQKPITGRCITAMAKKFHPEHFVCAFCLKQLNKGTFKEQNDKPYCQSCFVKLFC
UniProt O43294: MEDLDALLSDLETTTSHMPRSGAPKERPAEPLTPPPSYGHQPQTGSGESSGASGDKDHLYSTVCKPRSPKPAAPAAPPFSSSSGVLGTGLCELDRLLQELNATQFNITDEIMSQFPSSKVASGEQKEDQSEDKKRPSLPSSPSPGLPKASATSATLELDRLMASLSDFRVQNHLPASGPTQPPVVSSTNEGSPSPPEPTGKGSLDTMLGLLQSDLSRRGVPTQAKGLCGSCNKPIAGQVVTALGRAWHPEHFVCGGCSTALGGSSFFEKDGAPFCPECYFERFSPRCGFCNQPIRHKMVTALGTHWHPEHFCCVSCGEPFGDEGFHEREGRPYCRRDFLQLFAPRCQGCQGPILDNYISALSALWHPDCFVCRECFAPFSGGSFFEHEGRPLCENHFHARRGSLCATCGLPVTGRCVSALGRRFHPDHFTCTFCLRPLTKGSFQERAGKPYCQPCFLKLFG
UniProt Q62219: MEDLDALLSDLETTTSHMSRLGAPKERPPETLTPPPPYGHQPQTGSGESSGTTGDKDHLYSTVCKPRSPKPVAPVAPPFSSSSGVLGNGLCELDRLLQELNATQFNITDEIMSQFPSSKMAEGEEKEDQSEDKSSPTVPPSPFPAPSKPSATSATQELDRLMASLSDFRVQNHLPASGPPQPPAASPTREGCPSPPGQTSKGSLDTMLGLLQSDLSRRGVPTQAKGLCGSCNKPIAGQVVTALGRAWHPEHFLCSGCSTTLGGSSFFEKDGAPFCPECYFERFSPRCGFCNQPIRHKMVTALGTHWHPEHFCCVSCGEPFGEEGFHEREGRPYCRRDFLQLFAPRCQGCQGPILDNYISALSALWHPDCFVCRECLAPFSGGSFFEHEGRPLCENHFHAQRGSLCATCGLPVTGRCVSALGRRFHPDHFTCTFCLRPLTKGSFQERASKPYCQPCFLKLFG
UniProt P49023: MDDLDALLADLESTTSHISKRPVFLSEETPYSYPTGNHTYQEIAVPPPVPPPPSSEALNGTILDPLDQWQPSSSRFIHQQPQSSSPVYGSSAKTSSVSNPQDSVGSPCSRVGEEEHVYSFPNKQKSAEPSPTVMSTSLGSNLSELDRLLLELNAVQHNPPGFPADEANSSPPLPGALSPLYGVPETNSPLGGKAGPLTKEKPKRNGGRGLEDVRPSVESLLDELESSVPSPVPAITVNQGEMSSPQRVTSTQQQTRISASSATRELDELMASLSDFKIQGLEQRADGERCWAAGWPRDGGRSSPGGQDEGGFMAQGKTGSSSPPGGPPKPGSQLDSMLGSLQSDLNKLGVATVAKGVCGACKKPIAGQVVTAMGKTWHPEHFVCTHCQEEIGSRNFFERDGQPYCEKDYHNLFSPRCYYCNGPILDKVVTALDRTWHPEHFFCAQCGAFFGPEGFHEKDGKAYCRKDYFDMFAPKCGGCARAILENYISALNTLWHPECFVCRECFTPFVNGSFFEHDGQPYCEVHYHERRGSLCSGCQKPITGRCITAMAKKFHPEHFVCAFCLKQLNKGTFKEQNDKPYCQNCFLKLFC

In test [1] the target is T1, FLAG-tagged Git1-Y554F (rat) (UniProt Q9Z272).
T1 sequence: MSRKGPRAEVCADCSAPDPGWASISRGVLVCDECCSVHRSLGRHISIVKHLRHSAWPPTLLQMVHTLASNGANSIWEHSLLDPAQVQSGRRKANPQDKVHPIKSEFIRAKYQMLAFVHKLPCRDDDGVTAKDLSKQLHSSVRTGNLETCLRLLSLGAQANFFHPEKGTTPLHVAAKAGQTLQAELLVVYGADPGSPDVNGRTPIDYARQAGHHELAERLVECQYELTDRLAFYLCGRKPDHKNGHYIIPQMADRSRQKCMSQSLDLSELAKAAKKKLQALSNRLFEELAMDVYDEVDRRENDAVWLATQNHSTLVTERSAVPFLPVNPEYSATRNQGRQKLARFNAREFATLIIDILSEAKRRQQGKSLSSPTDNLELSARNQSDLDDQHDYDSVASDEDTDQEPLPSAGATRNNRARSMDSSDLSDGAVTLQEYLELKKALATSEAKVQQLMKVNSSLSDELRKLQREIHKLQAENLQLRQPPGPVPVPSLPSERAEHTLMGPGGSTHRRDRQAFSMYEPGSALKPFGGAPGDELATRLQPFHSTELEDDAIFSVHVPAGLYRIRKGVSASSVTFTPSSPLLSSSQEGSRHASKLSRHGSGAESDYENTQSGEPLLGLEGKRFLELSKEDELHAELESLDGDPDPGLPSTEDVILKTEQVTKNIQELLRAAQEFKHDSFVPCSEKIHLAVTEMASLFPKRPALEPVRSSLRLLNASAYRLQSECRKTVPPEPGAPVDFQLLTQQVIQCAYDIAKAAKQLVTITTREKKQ
Put plainly: co-IP; extracts of HEK293T cells expressing FLAG-tagged Git1 constructs, treated with 100 μM pervanadate for 15 min; lysis buffer 20 mM Tris-HCl pH 7.4, 1% NP-40, 150 mM NaCl, 10 mM NaF, 1 mM orthovanadate; anti-FLAG M2 magnetic beads 3 h; eluted with FLAG peptides; Western blot of endogenous Hic-5 or paxillin. (In general: Immunoblotting shows a protein as a band on a membrane.)

In test [2] the target is T2, FLAG-tagged Git1 (WT) (rat) (UniProt Q9Z272).
T2 sequence: T1 sequence with F554Y
Description: co-IP; extracts of HEK293T cells co-expressing FLAG-tagged Git1 proteins with a Myc-tagged partner or YFP-fused Git1; cells treated with 100 μM pervanadate or vehicle for 15 min; anti-FLAG beads; eluted by boiling in SDS sample buffer; Western blot with anti-Myc or anti-GFP.

For test [3], the target named is T3, FLAG-tagged Git1-Y554D (rat) (UniProt Q9Z272).
T3 sequence: T1 sequence with F554D
The test is described as above.

Test [4] addresses T1, FLAG-tagged Git1-Y554F (rat). The description is as above.
Test [5] concerns the target paxillin (endogenous, mouse cerebral cortex synaptosomes) (mouse (endogenous in cerebral cortex)) (UniProt Q8VI36). Description: co-IP; synaptosome extracts of the cerebral cortex of wild-type and Ptprz-deficient mice, precleared with protein G Sepharose; mouse monoclonal anti-paxillin-coated beads, 4°C; Western blot with rabbit anti-Git1.
For test [6], the target named is T2, FLAG-tagged Git1 (WT) (rat). Description: co-IP; extracts of HEK293T cells co-expressing FLAG-tagged Git1 proteins with a Myc-tagged partner or YFP-fused Git1; cells treated with 100 μM pervanadate or vehicle for 15 min; anti-FLAG beads; eluted by boiling in SDS sample buffer; Western blot with anti-Myc or anti-GFP. This is another data set of the same source.

Substitutions are numbered along the chain they refer to. Read-outs that look alike come from different tables or passages of the source. No constants are given. Whether binding was seen depends on the method and setting. Binding seen in cells or lysates may run through a third protein. Some binding calls cover weakened binding; strength is not graded here. For some of these results: Where a sequence is shown, tags or fusion partners need not be part of it.

As for “Hic-5 (endogenous, HEK293T) (from UniProt O43294 1-461)”, the binding entry in test [1] is listed as “binds”. As for “Myc-tagged Hic-5 (from UniProt Q62219 1-461)”, the binding entry in test [2], in test [3] and in test [4] was “binds” throughout. In the case of “paxillin (endogenous, HEK293T) (from UniProt P49023 1-591)”, the binding entry in test [1] is recorded as “binds”.

B1: Git1 (endogenous, mouse cerebral cortex synaptosomes) (protein, UniProt Q68FF6 1-770)
chain: MSRKGPRAEVCADCSAPDPGWASISRGVLVCDECCSVHRSLGRHISIVKHLRHSAWPPTLLQMVHTLASNGANSIWEHSLLDPAQVQSGRRKANPQDKVHPIKSEFIRAKYQMLAFVHKLPCRDDDGVTAKDLSKQLHSSVRTGNLETCLRLLSLGAQANFFHPEKGTTPLHVAAKAGQTLQAELLVVYGADPGSPDVNGRTPIDYARQAGHHELAERLVECQYELTDRLAFYLCGRKPDHKNGHYIIPQMADRSRQKCMSQSLDLSELAKAAKKKLQALSNRLFEELAMDVYDEVDRRENDAVWLATQNHSTLVTERSAVPFLPVNPEYSATRNQGRQKLARFNAREFATLIIDILSEAKRRQQGKSLSSPTDNLELSARSQSELDDQHDYDSVASDEDTDQEPLPSAGATRNNRARSMDSSDLSDGAVTLQEYLELKKALATSEAKVQQLMKVNSSLSDELRRLQREIHKLQAENLQLRQPPGPVPPPSLPSERAEHTLMGPGGSTHRRDRQAFSMYEPGSALKPFGGTPGDELATRLQPFHSTELEDDAIYSVHVPAGLYRIRKGVSASSVPFTPSSPLLSCSQEGSRHASKLSRHGSGADSDYENTQSGDPLLGLEGKRFLELSKEDELHPELESLDGDLDPGLPSTEDVILKTEQVTKNIQELLRAAQEFKHDSFVPCSEKIHLAVTEMASLFPKRPALEPVRSSLRLLNASAYRLQSECRKTVPPEPGAPVDFQLLTQQVIQCAYDIAKAAKQLVTITTREKKQ
B1: the binding entry in test [5] is “binds”.

B2: Myc-tagged βPix (protein, UniProt Q9ES28-5 1-782)
chain: MNSAEQTVTWLITLGVLESPKKTISDPEVFLQASLKDGVVLCRLLERLLPGTIEKVYPEPRNESECLSNIREFLRACGASLRLETFDANDLYQGQNFNKVLSSLVTLNKVTADIGLGSDSVCARPSSHRIKSFDSLGSQSSHSRTSKLLQSQYRSLDMTDNTNSQLVVRAKFNFQQTNEDELSFSKGDVIHVTRVEEGGWWEGTHNGRTGWFPSNYVREIKPSEKPVSPKSGTLKSPPKGFDTTAINKSYYNVVLQNILETEHEYSKELQSVLSTYLRPLQTSDKLSSANTSYLMGNLEEISSFQQVLVQSLEECTKSPEAQQRVGGCFLSLMPQMRTLYLAYCANHPSAVSVLTEHSEDLGEFMETKGASSPGILVLTTGLSKPFMRLDKYPTLLKELERHMEDYHPDRQDIQKSMTAFKNLSAQCQEVRKRKELELQILTEPIRSWEGDDIKTLGSVTYMSQVTIQCAGSEEKNERYLLLFPNLLLMLSASPRMSGFIYQGKLPTTGMTITKLEDSENHRNAFEISGSMIERILVSCTSQQDLHEWVEHLQKQTKVTSVSNPTIKPHSVPSHTLPSHPLTPSSKHADSKPVALTPAYHTLPHPSHHGTPHTTISWGPLEPPKTPKPWSLSCLRPAPPLRPSAALCYKEDLSKSPKTMKKLLPKRKPERKPSDEEFAVRKSTAALEEDAQILKVIEAYCTSAKTRQTLNSTWQGTDLMHNHVLADDDQSSLDSLGRRSSLSRLEPSDLSEDSEYDSIWTAHSYRMGSASRKSCCSYISHQN
On to B2, for which the binding result in test [6] is “binds”.
